Laboratory results from article PMC10602086.
Results are given in words; binding and its absence hold for the method and conditions named. Binding seen in cells or lysates may run through a third protein. Some results given as binding are weak or reduced against the parent protein; the word gives no strength.

By UniProt entry, the sequences of proteins in these tests, tags left out. Where a name states a change or a piece, a line headed by the entry shows the natural chain unless it says otherwise.
UniProt O75030: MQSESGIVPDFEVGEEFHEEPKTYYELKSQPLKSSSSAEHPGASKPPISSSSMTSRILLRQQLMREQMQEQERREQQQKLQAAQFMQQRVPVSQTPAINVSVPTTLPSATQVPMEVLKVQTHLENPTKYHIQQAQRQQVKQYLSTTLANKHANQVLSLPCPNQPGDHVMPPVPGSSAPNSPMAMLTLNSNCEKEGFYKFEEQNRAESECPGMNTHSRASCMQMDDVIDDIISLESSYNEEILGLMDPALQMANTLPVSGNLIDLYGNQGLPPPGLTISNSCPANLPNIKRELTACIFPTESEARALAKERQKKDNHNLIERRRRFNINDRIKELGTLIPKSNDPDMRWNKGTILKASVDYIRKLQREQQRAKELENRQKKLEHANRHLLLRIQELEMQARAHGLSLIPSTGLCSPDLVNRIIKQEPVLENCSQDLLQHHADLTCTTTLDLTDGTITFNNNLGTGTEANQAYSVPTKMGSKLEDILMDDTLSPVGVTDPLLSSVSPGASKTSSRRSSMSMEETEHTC
UniProt O00505: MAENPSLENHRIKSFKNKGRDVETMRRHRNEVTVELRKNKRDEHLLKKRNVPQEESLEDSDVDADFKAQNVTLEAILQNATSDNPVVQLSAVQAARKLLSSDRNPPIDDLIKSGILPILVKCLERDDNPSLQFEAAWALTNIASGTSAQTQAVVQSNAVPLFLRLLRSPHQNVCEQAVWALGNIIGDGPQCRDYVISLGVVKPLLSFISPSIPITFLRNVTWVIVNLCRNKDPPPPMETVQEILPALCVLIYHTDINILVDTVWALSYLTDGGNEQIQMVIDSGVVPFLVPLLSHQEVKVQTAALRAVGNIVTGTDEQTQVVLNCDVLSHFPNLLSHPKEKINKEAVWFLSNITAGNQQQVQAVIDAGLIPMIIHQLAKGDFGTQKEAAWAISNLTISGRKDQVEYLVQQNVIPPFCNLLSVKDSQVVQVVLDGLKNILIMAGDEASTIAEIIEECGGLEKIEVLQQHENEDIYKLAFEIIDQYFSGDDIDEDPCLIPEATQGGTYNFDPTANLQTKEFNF
UniProt Q14974: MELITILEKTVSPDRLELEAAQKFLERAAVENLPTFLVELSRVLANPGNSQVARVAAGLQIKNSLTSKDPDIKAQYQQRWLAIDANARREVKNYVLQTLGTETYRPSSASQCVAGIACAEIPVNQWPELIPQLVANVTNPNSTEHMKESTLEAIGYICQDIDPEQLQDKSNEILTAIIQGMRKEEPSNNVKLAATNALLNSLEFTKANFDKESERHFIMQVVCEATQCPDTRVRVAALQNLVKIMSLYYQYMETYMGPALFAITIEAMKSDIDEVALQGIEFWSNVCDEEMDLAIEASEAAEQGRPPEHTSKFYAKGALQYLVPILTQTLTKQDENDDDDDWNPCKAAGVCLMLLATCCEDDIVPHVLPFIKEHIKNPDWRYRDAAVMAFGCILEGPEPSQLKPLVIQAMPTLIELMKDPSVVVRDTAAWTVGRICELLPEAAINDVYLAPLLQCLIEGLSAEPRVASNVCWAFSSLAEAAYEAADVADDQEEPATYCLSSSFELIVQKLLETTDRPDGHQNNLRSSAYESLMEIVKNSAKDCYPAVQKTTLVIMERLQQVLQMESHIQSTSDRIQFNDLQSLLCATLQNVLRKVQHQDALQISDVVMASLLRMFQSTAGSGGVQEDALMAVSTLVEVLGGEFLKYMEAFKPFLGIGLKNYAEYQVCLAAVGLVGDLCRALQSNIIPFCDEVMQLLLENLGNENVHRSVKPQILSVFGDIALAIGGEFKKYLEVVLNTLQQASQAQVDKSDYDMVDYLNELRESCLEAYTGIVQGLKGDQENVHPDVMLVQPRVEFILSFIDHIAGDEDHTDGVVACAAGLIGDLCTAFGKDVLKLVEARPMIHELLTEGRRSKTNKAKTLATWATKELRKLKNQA
UniProt A9QM74: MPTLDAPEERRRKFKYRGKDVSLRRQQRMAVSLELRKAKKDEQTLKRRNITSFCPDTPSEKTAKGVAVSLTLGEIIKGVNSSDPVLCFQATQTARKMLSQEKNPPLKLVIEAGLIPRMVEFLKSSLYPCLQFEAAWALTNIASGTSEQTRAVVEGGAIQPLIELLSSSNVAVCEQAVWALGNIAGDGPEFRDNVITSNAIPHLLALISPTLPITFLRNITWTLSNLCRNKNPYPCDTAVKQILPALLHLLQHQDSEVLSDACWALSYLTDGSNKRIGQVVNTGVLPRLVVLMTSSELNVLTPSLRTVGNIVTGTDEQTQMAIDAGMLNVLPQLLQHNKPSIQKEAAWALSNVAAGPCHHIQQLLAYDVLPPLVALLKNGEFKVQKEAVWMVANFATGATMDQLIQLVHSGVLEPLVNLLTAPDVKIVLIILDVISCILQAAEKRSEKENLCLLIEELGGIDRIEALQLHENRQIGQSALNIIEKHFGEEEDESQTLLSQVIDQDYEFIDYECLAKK

What was measured:
HA-MITF (S49A) (human) = HA-MITF (S49A) (human) (UniProt O75030); test: co-IP; HA-IP from MCF-7 PR cells transfected with HA-MITF (WT or S49A) and the indicated importins; cells with OGT inhibition or PUGNAc as indicated
HA-MITF (human) = HA-MITF (human) (UniProt O75030); test: as above
[1] = target: GST-MITF (non-O-GlcNAcylated) (human) (UniProt O75030); test: pull-down; GST-MITF with or without in vitro O-GlcNAcylation on glutathione Sepharose beads, incubated at 4 °C overnight with lysates (NETN buffer) of MCF-7 PR cells transfected with the indicated importin α; only the target purified
[2] = target: GST-MITF with O-GlcNAcylation (human) (UniProt O75030); test: as above

Measured: binding

FLAG-importin α4 (from UniProt O00505 1-521)
binds: HA-MITF (S49A) (human) | HA-MITF (human) | [1] | [2]

FLAG-importin α7 (from UniProt O60684 1-536)
binds: HA-MITF (S49A) (human) | HA-MITF (human) | [1] | [2]

FLAG-importin β (from UniProt Q14974 1-876)
binds: HA-MITF (human)

importin α8 (from UniProt A9QM74 1-516)
binds: HA-MITF (S49A) (human) | HA-MITF (human) | [1] | [2]
